Record: PubChem BioAssay AID504791 (Drosophila RNAi Screening Center, 2011)

Assay: 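Genes whose knock-down strengthens or weakens small-RNA reporter silencing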 (primary screen)
Cell system: Drosophila S2-derived reporter cells
Reagents: long dsRNA against Drosophila genes, about 150-250 ng dsRNA per well (siRNA assay); about 80-120 ng (miRNA assay)
Time to read-out: about 5 days (siRNA assay); about 4 days (miRNA assay)
Challenge: copper sulfate induction of reporters: 25 µM (siRNA assay); 200 mM stated (miRNA assay), 1-2 days before reading
Read-out: 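Per-well ratio of Renilla over firefly light, expressed relative to that plate's average ratio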
Units: stable assay Renilla, run 1 in luminescence; stable assay firefly, run 1 in luminescence
Hit rule: 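a well was a first-pass pick when its plate-scaled ratio rose above 1.5 (siRNA assay) or 1.6 (miRNA assay), or dropped below 0.6; a gene counted only if two separate dsRNAs agreed on retest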
The deposit covers about 23,000 reagents; below is a random part of those with a known target gene and a result. Of all reagents, 199 (0.86%) got an active call. 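Plate-scaled ratios behind the calls are not deposited; printed light signals are raw; many rows marked increased or decreased are still called inactive.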 Unmarked entries are inactive. Reagents against one gene are numbered here. Not stated in the record: the direction of the score.

{"target":"MetRS (Methionyl-tRNA synthetase)","dsRNA no.":1,"stable siRNA reporter change":"reporter ratio raised past the hit cutoff","stable assay Renilla, run 1":8696,"stable assay firefly, run 1":2.74e5}
{"target":"PIG-S (Phosphatidylinositol glycan anchor biosynthesis class S)","dsRNA no.":1,"stable assay Renilla, run 1":8991,"stable assay firefly, run 1":3.64e5}
{"target":"PIG-S (Phosphatidylinositol glycan anchor biosynthesis class S)","dsRNA no.":2,"stable assay Renilla, run 1":6863,"stable assay firefly, run 1":3.60e5}
{"target":"PIG-S (Phosphatidylinositol glycan anchor biosynthesis class S)","dsRNA no.":3,"stable assay Renilla, run 1":9053,"stable assay firefly, run 1":3.20e5}
{"target":"ana1 (anastral spindle 1)","dsRNA no.":1,"stable assay Renilla, run 1":11117,"stable assay firefly, run 1":5.29e5}
{"target":"ana1 (anastral spindle 1)","dsRNA no.":2,"stable assay Renilla, run 1":8981,"stable assay firefly, run 1":5.78e5}
{"target":"UbcE2H (Ubiquitin conjugating enzyme E2H)","dsRNA no.":1,"stable assay Renilla, run 1":8653,"stable assay firefly, run 1":6.29e5}

The list goes on (2 carried over from the part before).
{"target":"ana1 (anastral spindle 1)","dsRNA no.":2,"stable assay Renilla, run 1":8981,"stable assay firefly, run 1":5.78e5}
{"target":"UbcE2H (Ubiquitin conjugating enzyme E2H)","dsRNA no.":1,"stable assay Renilla, run 1":8653,"stable assay firefly, run 1":6.29e5}
{"target":"Lmx1a (LIM homeobox transcription factor 1 alpha)","dsRNA no.":1,"stable assay Renilla, run 1":6483,"stable assay firefly, run 1":3.66e5}
{"target":"Lmx1a (LIM homeobox transcription factor 1 alpha)","dsRNA no.":2,"stable assay Renilla, run 1":4143,"stable assay firefly, run 1":2.09e5}
{"target":"CG31817","dsRNA no.":1,"stable assay Renilla, run 1":5967,"stable assay firefly, run 1":2.85e5}
{"target":"CG31817","dsRNA no.":2,"stable assay Renilla, run 1":4704,"stable assay firefly, run 1":4.07e5}
{"target":"CG31817","dsRNA no.":3,"stable assay Renilla, run 1":2724,"stable assay firefly, run 1":2.66e5}
